Laboratory results as given in PMC10163288.
Some of the results follow.

B1: il2ra_site2_2erj_normal_mot_HHH_b1_01129_af2_000000281_0001_18_33_H_._HHH_b2_07712_0001_0000700042_0000001_0 (protein)
chain: SSSSSSDEEEVEELLERAKEITDLRELYRLLNEALRIASESRNHELLELIYKVMEELASSSSSSS
B2: il2ra_site1_3nfp_normal_mot_eb5a5eebac1e5153f932cc6c3f4b2787_0001_af2_000000065_0001_18_33_H_._HHH_b2_00546_af2_0001_0000500045_0000001_0_af2pred_0001_af2pred (protein)
chain: SSSSDELKEEVRELLEQAEEAAKEGNPLEASKLLEEALRLARENRDHELAEEIFKIMKELASSSS
B3: il2ra_site2_3nfp_normal_mot_HHH_b2_06904_af2_000000235_0001_1_14_H_._5f20bd37ef72b54d9d5808571b4331c8_0001_0001_0000300049_0000001_0_af2pred_0001_af2pred (protein)
chain: GPAELIWELRHEDRELAFALFALRAEVLATNDPRLEELLERALELIEEGNPEEAKEVLKEAEKLP
B4: il2ra_site2_3nfp_normal_mot_HHH_b2_05281_000000198_0001_39_56_H_._HHH_b1_04028_0001_0001200026_0000001_0 (protein)
chain: SSSSSEEEKRVEELIERAEELLKRGNPEEAKELLQEATHLAFELGDSRLFYLLAELAYELRSSSS
B5: il2ra_site2_2erj_sap_18_mot_4b0744c440632e7b239d8b54ed7c44c2_0001_af2_000000182_0001_16_31_H_._HHH_b1_07812_0001_0000400013_0000001_0_0001 (protein)
chain: SSSSDERLHELYELAAELLRLVAEGDEEQFERVFEELRELIEELKSETARKILESLRRLLHSSSS
B6: il2ra_site1_2b5i_sap_13_mot_HHH_b1_02271_000000068_0001_1_16_H_._938bed80e497fa1066727820926b3ec2_0001_af2_0001_0000200006_0000001_0_0001 (protein)
chain: SSSSSREAMKELVRWVLRLKWRLGLSDEAMKELAQLASELLEKGISPEEAKEILRERAEELSSSS
B7: il2ra_site1_1z92_normal_mot_HHH_b1_07526_000000113_0001_40_57_H_._HHH_b1_06581_af2_0001_0000200038_0000001_0_af2pred_0001_af2pred_1 (protein)
chain: SSSSDLEEEAQKIVEELVEELNLSEKQEKNLRRLAKAAVELGADEEEIERLLRLFAELALSSSSS
B8: il2ra_site1_2b5i_normal_mot_0e5a94e4a5addaac739760efb25f0f5d_0001_000000246_0001_18_32_H_._cf88cf85650e0ae85d215619de225a54_0001_0001_0000300012_0000001_0_af2pr … (protein)
chain: DEEKEERVRKRAKRNPRDALVLAIFIARKKGDEELTEKLEELAELLLRGEVPPEELVELALELLR
B9: il2ra_site2_2erj_sap_17_mot_HHH_b1_05944_000000102_0001_38_56_H_._HHH_b2_07088_0001_0000300019_0000001_0_0001 (protein)
chain: SSSSSDKLREAYELAVEVMRLLSEGDEEEAERLAEEVERLLEELGTPDAAELLRELLRINSSSSS
B10: il2ra_site2_3nfp_sap_15_mot_HHH_b1_04996_000000161_0001_40_54_H_._HHH_b2_06317_0001_0000300055_0000001_1_0001 (protein)
chain: SSSSSDKEEVEELLREAERLLEEGNPEEAEQAVLRAAHLAWELNDFEAYMKVAELAFRIASSSSS
B11: il2ra_site2_3nfp_sap_15_mot_HHH_b2_07840_000000026_0001_18_34_H_._HHH_b2_05131_0001_0000700021_0000001_0_0001 (protein)
chain: SSSSDEEEKRVQELIEEIERLLEEGDRWEAAQLLLEASELAARINNEELARKLLELFRLIQSSSS
B12: il2ra_site1_3nfp_normal_mot_HHH_b1_04931_000000291_0001_38_56_H_._HHH_b2_03644_0001_0000700031_0000001_0_af2pred_0001_af2pred (protein)
chain: SSSSSDEEDEEEVKRLLEEAKRIEDPREANEVLREALKIAKEAGDPELYKLVLKVLRELASSSSS
B13: il2ra_site1_2b5i_normal_mot_HHH_b2_04910_000000118_0001_1_19_H_._HHH_b2_06441_af2_0001_0000100003_0000001_0_af2pred_dldesign_0_af2pred (protein)
chain: SSSSSSPAEEARRLFYKANELYQAGKYEEAKAALEEALRLARELGSRSLTRLIELALASLSSSSS
B14: il2ra_site2_3nfp_normal_mot_HHH_b1_05627_af2_000000038_0001_43_56_H_._HHH_b1_00019_0001_0000600019_0000001_1 (protein)
chain: SSSSKAEEYVEAAILIARLALEQGDPESARSSLHAAELLARAIRDPELVRLVEELEEELNSSSSS
B15: il2ra_site2_3nfp_sap_19_mot_HHH_b1_06613_af2_000000098_0001_23_40_H_._HHH_b2_05595_af2_0001_0000400018_0000001_0_0001_af2pred_0001_af2pred (protein)
chain: SSSSSSDVEELLEQAERLLEEGNEEEAEQVLLRAAAAAAERNDFETYAEVADLYRRLKSSSSSSS
B16: il2ra_site2_3nfp_sap_6_mot_HHH_b2_00747_000000224_0001_22_38_H_._HHH_b2_08216_0001_0000300016_0000001_0_0001 (protein)
chain: SSSSSWERLLRLALEALRAASRQRDDEWFEKSFEYIRAAVELWNDEEAREELEEIEEKFEGSSSS
B17: il2ra_site1_2b5i_normal_mot_HHH_b2_04910_000000118_0001_1_19_H_._HHH_b1_03473_0001_0000100004_0000001_0_af2pred_0001_af2pred_1 (protein)
chain: SSSSSEELMEALELADKLVKNGDPEEARRVLEEALKEAEELGNRSIIKILRSALRLIELMESSSS
B18: il2ra_site2_2erj_normal_mot_HHH_b1_02757_000000121_0001_41_57_H_._HHH_b1_03035_0001_0000500018_0000001_0_af2pred_0001_af2pred (protein)
chain: SSSSSSDEEEEKVEELLEEAEHITDRREALRVLQEADEIAAENDNEELLELIEEWYKRLSSSSSS
B19: il2ra_site2_2erj_normal_mot_HHH_b1_05204_000000269_0001_1_15_H_._HHH_b1_00954_0001_0000200014_0000001_0_1_af2pred_0001_af2pred (protein)
chain: SSSSDLEEELRRLLEELEELVKEGDEKKFMEVALRVAKLVIENNDEEAAKLLLRLLRELRSSSSS
B20: il2ra_site2_2erj_normal_mot_b51ef6c5904a99cec739238a0ecf354a_0001_af2_000000238_0001_35_49_H_._HHH_b1_05977_0001_0000400024_0000001_0 (protein)
chain: SSSSLEESFELLEELFERLNKLIEKNDEEEFERVLEELRKLAERFESPIVRDAIELLELQHSSSS
B21: il2ra_site1_3nfp_normal_mot_HHH_b2_03135_af2_000000097_0001_42_55_H_._HHH_b1_08375_0001_0000300023_0000001_0 (protein)
chain: SSSSDHELSRLAQEAWKLLREGDLEEAEEVLREAEQLARELNDKIALKLVEQLLEALERRGSSSS
B22: il2ra_site1_1z92_sap_16_mot_9b3351f2f66fbcc824ad33b4da01f8ef_0001_af2_000000012_0001_16_32_H_._HHH_b1_01088_0001_0000300029_0000001_0_0001 (protein)
chain: SSSSSREERALEWALELLKSAVRLGNQERAEFVTRDIEMIARRLNDEEVLEEAEELLRRLTSSSS
B23: il2ra_site1_1z92_sap_8_mot_HHH_b1_03465_af2_000000044_0001_40_52_H_._HHH_b2_03045_0001_0000300027_0000001_0_0001 (protein)
chain: SSSSDEELRQVVKELVEEYNLSEAAEKVLERLVKMDEELGVSEESAKEALEKAAELFHRLQSSSS
B24: il2ra_site2_3nfp_sap_25_mot_HHH_b1_06715_000000068_0001_21_38_H_._ad6158629c6fd226c14646e2effd3054_0001_1_af2_0001_0000300021_0000001_1_0001 (protein)
chain: SSSSDEREEEIRELLEEAKRIEDPEEAARAVSRAAALAAELQDFELFALAAELRYKLIRDSSSSS

Target: il2ra, P01589
Test: yeast display titration

Apparent Kd, inactive:
B1 no binding seen, B2 no binding seen, B3 no binding seen, B4 no binding seen, B5 no binding seen, B6 no binding seen, B7 no binding seen, B8 no binding seen, B9 no binding seen, B10 no binding seen, B11 no binding seen, B12 no binding seen, B13 no binding seen, B14 no binding seen, B15 no binding seen, B16 no binding seen, B17 no binding seen, B18 no binding seen, B19 no binding seen, B20 no binding seen, B21 no binding seen, B22 no binding seen, B23 no binding seen, B24 no binding seen
